PubChem BioAssay AID1347423 (Functional Genomics Laboratory (NCATS/FGL), 2020)
About 210 (0.4%) of roughly 52,000 sequences were called active.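 How the source made its calls: active means gene whose silencing raises cell survival under the drug, median off-target-corrected z-score across its silencing RNAs 2 or more; inactive means the rest.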 Some of the results follow.

Test: Resistance to Poly (ADP-Ribose) Polymerase inhibitor: Gene Identification via Genome-wide siRNA Screen
Details: mouse BRCA2 R2336H ES cells, olaparib, CellTiter-Glo viability; hits give high values
Method in brief: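 Mouse BRCA2 R2336H ES cells were reverse-transfected with siRNA (20 nM final), treated at 48 h with 500 nM olaparib, and read by CellTiter-Glo after 72 h. Scores: MAD-based z per siRNA, median per gene, seed off-target correction.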

Sequence	z-score
CCAUUCUGUGCCUUAGUUUTT against Loxhd1	inactive: -0.669
GGCGAGGGUUAAAAAUUUATT against Sfrs1	inactive: -1.02
GGGAAAAUAUCAAGUGUAGTT against BC027828	inactive: -0.161
GGAAAUGAACAGUAAACCATT against 2010204I15Rik	inactive: 0.485
GGUGUUUCAUUAACAGGAATT against 5430416O09Rik	inactive: 0.106
GGCACCUACAUCCUUAUUGTT against Ptprn	inactive: 0.11
GGACUUUGAGAAAGCAUUCTT against Pck1	inactive: -0.503
GAUGGUACUCUUCAUAGUATT against Olfr1362	inactive: 0.64
GGAGGAAAUACAUGAUAAATT against Strap	inactive: 0.249
GCAGUAACUCCGGUAGUAGTT against Daxx	inactive: 1.31
GCUGCUGAUUCAAUUCUAUTT against Eif2c4	inactive: 0.00509
GGACAUUGGUCCAAAGAGUTT against 4921506I22Rik	inactive: -0.752
GGGAGAACAGUGUUCAGAGTT against Mist1	inactive: 0.501
GCAAUUAUAUUUGUUCGGGTT against AW456874	inactive: 0.874
GGAAGUAGAGCUUCAAAUGTT against Cdkl2	inactive: 0.468
GGCAAUGACCUUGUAAAGATT against Tomm34	inactive: 0.00616
GAUUGGAUUUAAAGCCUGCTT against Olfr667	inactive: -0.649
CCGUAUUCCAUACAAGGACTT against Ilk	inactive: 0.86
GCACUAUGGUAUUGAAAUUTT against Armc5	inactive: -1.01
GGAUAGGUUUCUGUAUUUATT against Znrf1	inactive: 0.0701
GGCUUAUUGUAGAAAAUCUTT against Sfrs6	inactive: -0.678
GGAUGAAACACAACUGCACTT against Ctsz	inactive: 1.45
GGCGUGAAGAAGUUUGAUGTT against Pklr	inactive: -0.195
GCCUCGAUUGGCCACAUUUTT against Atp5l	inactive: -2.55
CCUCAAACCAUCAACAACCTT against Six3	inactive: -0.853
GGACAGUGAACUUUUGACCTT against C030019F02Rik	inactive: 0.758

Sequence	z-score
GGGAUUCCAGACAUGGGAATT against Dibd1	inactive: 0.152
CCUACAGUGACCUUUCCCGTT against Apcs	inactive: -0.238
GGAACACAAUAGUACAUACTT against Slc2a4	inactive: 0.313
GGGUGGUGUUUUAACCCUUTT against Mep1b	inactive: 1.34
GGAGAUCUACUUUCUCAACTT against Crtac1	inactive: 0.137
GGAGCUUGUGAACACCUUCTT against Nudc	inactive: -2.46
GGCAAUCUGGAACAACAUATT against Tmem16f	inactive: -0.837
CGGAGCCAAAUACGAAGGGTT against Jph3	inactive: 0.0354
GUGACAAGAGAAGUCAAAATT against Ear1	inactive: 1.63
CGUGUGGUAACUUGAAGGGTT against LOC434484	inactive: -0.774
GCACUACACCUCCAGUUCGTT against Gne	inactive: -0.224
GCCAGAAGAGCAGAAAGUUTT against Enpp5	inactive: 0.271
GGAAGAGAGCAGAAAGAAGTT against Trim35	inactive: -0.536
GGGAUAAGUACUCUGCUAATT against Sorcs3	inactive: -0.318
GGGUAGACCUCAAUGAUAUTT against D930047P17Rik	inactive: -0.084
GGAAGUUGUGUGACAGAAATT against 9230106L18Rik	inactive: -0.79
GGAUGGGUCAAUGUUCUACTT against V1rb6	inactive: -0.923
GGGCUGUUUGGAAUAAUAATT against Gmppb	inactive: -1.59
GCAUGUUGUCGACACAUGCTT against Bcl6	inactive: 0.541
GGACAUACAAAUCUUCAUUTT against Mta2	inactive: -0.311
GGUACACGUCUUGUCUCUGTT against Spry2	inactive: -1.13
GGUCUGCCUUUGAAAAAAATT against Bckdha	inactive: -0.0859
GGGAAGAAGACUGACAAGCTT against Lars	inactive: 0.068
GCAGGUGUAUACUAUGUUATT against G6pc	inactive: -1.08
CCGCUACAGGUUUACCAAGTT against LOC434768	inactive: -0.0796
GCAGAAAUACGAAAUCAACTT against Tnnt2	inactive: -0.702
